# Data as given in PubChem BioAssay AID504774 (Drosophila RNAi Screening Center, 2011)
# Test: 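Genes required for cells to withstand methyl methanesulphonate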 (primary screen)
# Cell system: Drosophila Kc167 cells
# Reagent: long dsRNA against Drosophila genes, about 0.25 µg dsRNA per well
# Timing: about 6 days: 3 days knock-down, then 3 days with or without MMS
# Challenge: methyl methanesulphonate 0.004% (w/v) for 3 days after knock-down
# Measurement: 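ATP-dependent luminescence as a measure of live cells in MMS-exposed wells, quantile normalised within each plate, with replicate values also given as a mean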
# Direction: mean viability with MMS and viability with MMS: higher = more surviving cells after MMS
# The deposit covers about 23,000 reagents; this is an unselected part of those that have a named target and a result. 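Values are quantile-normalised luminescence on an arbitrary scale; higher means more cells surviving MMS.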 Not all columns of the deposit are shown.
The first 3 records, to show the layout:
gene,amplicon,mean viability with MMS,"viability with MMS, replicate 1"
RhoGAP100F,DRSC15409,3.48e6,4.01e6
CG3407,DRSC00603,3.51e6,3.98e6
CG13063,DRSC09946,3.54e6,3.92e6

The list itself, from the first entry:
gene,amplicon,mean viability with MMS,"viability with MMS, replicate 1"
RhoGAP100F,DRSC15409,3.48e6,4.01e6
CG3407,DRSC00603,3.51e6,3.98e6
CG13063,DRSC09946,3.54e6,3.92e6
betaNACtes3,DRSC20183,3.75e6,4.20e6
CG4658,DRSC02768,3.35e6,3.66e6
RpL15,DRSC20963,3.09e6,3.69e6
CG1371,DRSC06409,3.70e6,4.19e6
Ctns,DRSC15175,3.50e6,3.93e6
UQCR-14L,DRSC15288,3.71e6,4.28e6
UQCR-14L,DRSC22425,3.76e6,4.17e6
SNRPG,DRSC20207,3.29e6,3.72e6
Nepl10,DRSC07212,3.74e6,3.74e6
CG46339,DRSC14136,3.65e6,4.17e6
CG3216,DRSC04347,3.43e6,3.97e6
CG12278,DRSC14494,3.32e6,3.80e6
RecQ4,DRSC11265,3.30e6,3.63e6
CG5347,DRSC19942,3.62e6,4.07e6
Cyp312a1,DRSC11128,3.57e6,4.12e6
CG12522,DRSC09088,3.38e6,3.85e6
CG7423,DRSC20044,3.48e6,3.92e6
CG18675,DRSC08536,3.51e6,3.96e6
Muc55B,DRSC21440,3.61e6,4.12e6
CG8112,DRSC16377,3.78e6,4.24e6
CG12640,DRSC17847,3.45e6,3.88e6
CG2955,DRSC00552,3.50e6,3.86e6
Acsx1L,DRSC16014,3.41e6,3.73e6
CG9270,DRSC03182,3.52e6,4.13e6
lectin-24Db,DRSC00553,3.47e6,4.04e6
